The exact form of at least one protein or probe is not confirmed. No signal at the amounts used counts as a negative.
Target: GST-Hac1 (Saccharomyces cerevisiae) (UniProt P41546)
Assay: EMSA
Conditions: Beyotime Chemiluminescent EMSA Kit per manufacturer, probes annealed in 10 mM Tris-HCl pH 8.0, 1 mM EDTA, binding buffer, salt and temperature not stated, recombinant protein, protein details: GST, label: 5' biotin

Sequences of proteins named here, by UniProt entry; tags and fusion partners are left off. A change or cut given only in a name is not applied to a line headed by its entry.
UniProt P41546: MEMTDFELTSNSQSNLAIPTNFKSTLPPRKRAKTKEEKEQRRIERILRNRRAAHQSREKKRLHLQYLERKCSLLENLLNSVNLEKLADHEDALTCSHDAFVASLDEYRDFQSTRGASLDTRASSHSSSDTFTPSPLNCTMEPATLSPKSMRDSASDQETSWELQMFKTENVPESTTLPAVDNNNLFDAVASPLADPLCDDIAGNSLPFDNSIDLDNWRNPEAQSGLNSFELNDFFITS

Sequence | binding result (higher affinity than UPRE2) | also measured
GCGCCTTCTATTACCTTCTGCTCTCTCCTC (double strand) [TDH3 probe] | – | binding result: no binding
GCGAAAAGGATTACGTGTCCTCAAAATCTC (double strand) [m84 probe] | binds | –
GCGTTTACGGGTACGTGTCCTCAAAAGCTC (double strand) [m82 probe] | binds | –
GCGATACGGAGTACGTGTCATAAAAACCTC (double strand) [UPRE2 probe] | – | binding result (lower affinity than m82, m84, m86, m94): binds
GCGCAGTGGGTTACGTGTCATCAGAGCCTC (double strand) [m86 probe] | binds | –
GCGAAGCGGTTTACGTGTCAAAAGTGTCTC (double strand) [m94 probe] | binds | –

Source: article PMC11087760
